Our source for the growth values is the supplement of paper PMC8007513.

This is one part of the list. Many values rest on one well or one pass, so single values are uncertain.

In the experiment the test system is Saccharomyces cerevisiae BY4743. Kind of experiment: growth (OD600) with compound + IPBC relative to untreated control; higher = less growth inhibition. To be noted: compound concentration: 133 uM; IPBC concentration: 0.5 ug/ml; 20 h. As to the method:
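NMCCC compounds (133 uM) combined with IPBC (0.5 ug/ml) against Saccharomyces cerevisiae BY4743 in YPD, 96-well plates. Growth was read as OD600 at 20 h and expressed as % of the untreated control. Single pass.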
In the case of `COc1nc(NS(=O)(=O)c2ccc(C)cc2)nc(C)c1Cl` + CCCCNC(=O)OCC#CI [3-iodo-2-propynyl butylcarbamate (IPBC)], the growth stood at 90.1%.
As for `Cn1ccc(S(=O)(=O)N2CCC(C(=O)Nc3ccccc3OCC(F)(F)F)CC2)c1` + CCCCNC(=O)OCC#CI [3-iodo-2-propynyl butylcarbamate (IPBC)], the growth came to 95.4%.
As to `CCOc1ccc(CC(=O)Nc2ccc3nc(NC(C)=O)sc3c2)cc1OCC` + CCCCNC(=O)OCC#CI [3-iodo-2-propynyl butylcarbamate (IPBC)], the growth came to 85%.
To `CCOc1ccc(Oc2ccc(NC(=O)c3cc(S(=O)(=O)NC(C)C)cn3C)cc2)cc1` + CCCCNC(=O)OCC#CI [3-iodo-2-propynyl butylcarbamate (IPBC)] belongs 98.4%; to `CC1(C)CC(NC(=O)CNC(=O)Cc2nnc(O)c3ccccc23)CC(C)(C)N1` + CCCCNC(=O)OCC#CI [3-iodo-2-propynyl butylcarbamate (IPBC)], 107%; to `CCN(C(=O)Nc1cccc(C(C)=O)c1)c1nc(-c2ccc(C)cc2)cs1` + CCCCNC(=O)OCC#CI [3-iodo-2-propynyl butylcarbamate (IPBC)], 82.4%.
On to `CO\C1=C\N(CC(=O)NCC2=CC=C(F)C=C2)\C(=C/C1=O)CN3CCOCC3` + CCCCNC(=O)OCC#CI [3-iodo-2-propynyl butylcarbamate (IPBC)], for which the growth is 74.1%.
For `COc1ccc(-c2nnc(SCC(=O)NC(C)(C#N)C(C)C)o2)cc1` (configuration not stated) + CCCCNC(=O)OCC#CI [3-iodo-2-propynyl butylcarbamate (IPBC)], the growth was 103%.
`COC(=O)COc1ccc(NC(=O)c2ccc(O)nn2)cc1` + CCCCNC(=O)OCC#CI [3-iodo-2-propynyl butylcarbamate (IPBC)]: the growth came to 104%.
Turning to `Cc1cc(C)cc(-c2nnc(SCc3cc(C)on3)o2)c1` + CCCCNC(=O)OCC#CI [3-iodo-2-propynyl butylcarbamate (IPBC)], the growth turned out to be 85.3%.
Consider `CCOc1ccc2nc(SC3CCOC3=O)sc2c1` (configuration not stated) + CCCCNC(=O)OCC#CI [3-iodo-2-propynyl butylcarbamate (IPBC)], for which the growth was 91%.
Turning to `CCn1c(O)nnc1SCc1csc(C)n1` + CCCCNC(=O)OCC#CI [3-iodo-2-propynyl butylcarbamate (IPBC)], the growth is 97.3%.
Under `CN(C(=O)COCc1cc(-c2ccc(F)cc2)on1)c1ccccc1` + CCCCNC(=O)OCC#CI [3-iodo-2-propynyl butylcarbamate (IPBC)] stands 109%.
To `COC(=O)c1cc(OCC(=O)c2ccc[nH]2)cc(C(=O)OC)c1` + CCCCNC(=O)OCC#CI [3-iodo-2-propynyl butylcarbamate (IPBC)] belongs 95.4%; to `COc1cc(Br)c(CCNC(=O)c2nnc(O)c3ccccc23)cc1OC` + CCCCNC(=O)OCC#CI [3-iodo-2-propynyl butylcarbamate (IPBC)], 102%.
Regarding `CCC(C(=O)N1CCOCC1)n1c(C(=O)OC)cc2sc(C)cc21` (configuration not stated) + CCCCNC(=O)OCC#CI [3-iodo-2-propynyl butylcarbamate (IPBC)], the growth came out at 110%.
As for `Cc1nc2ccc(S(=O)(=O)NC(CC(C)C)C(=O)N3CCCCCC3)cc2s1` (configuration not stated) + CCCCNC(=O)OCC#CI [3-iodo-2-propynyl butylcarbamate (IPBC)], the growth came out at 97.7%.
